The supplement of paper PMC12823440, “Inhibitors supercharge kinase turnover through native proteolytic circuits” (Nature, 2025)
Structures can show the parent of a compound that is named as a salt. The list shows a part of the results. Hit calls seldom repeat between salt and free forms of one compound.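 Kinases were expressed as nanoluciferase fusions in K562 cells and luminescence was read every 4 h between 2 and 18 h as percent of control, DMSO set to 100% and a positive control to 0%. A time point counts as decreased when the signal drops significantly (2 sigma). The hit call is the authors' own, does not follow from the count of time points alone, and its rule is not shown.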

Amino acid sequences for entries named in this document (tags omitted). A change or cut given only in a name is not applied to a line headed by its entry.
UniProt Q06187: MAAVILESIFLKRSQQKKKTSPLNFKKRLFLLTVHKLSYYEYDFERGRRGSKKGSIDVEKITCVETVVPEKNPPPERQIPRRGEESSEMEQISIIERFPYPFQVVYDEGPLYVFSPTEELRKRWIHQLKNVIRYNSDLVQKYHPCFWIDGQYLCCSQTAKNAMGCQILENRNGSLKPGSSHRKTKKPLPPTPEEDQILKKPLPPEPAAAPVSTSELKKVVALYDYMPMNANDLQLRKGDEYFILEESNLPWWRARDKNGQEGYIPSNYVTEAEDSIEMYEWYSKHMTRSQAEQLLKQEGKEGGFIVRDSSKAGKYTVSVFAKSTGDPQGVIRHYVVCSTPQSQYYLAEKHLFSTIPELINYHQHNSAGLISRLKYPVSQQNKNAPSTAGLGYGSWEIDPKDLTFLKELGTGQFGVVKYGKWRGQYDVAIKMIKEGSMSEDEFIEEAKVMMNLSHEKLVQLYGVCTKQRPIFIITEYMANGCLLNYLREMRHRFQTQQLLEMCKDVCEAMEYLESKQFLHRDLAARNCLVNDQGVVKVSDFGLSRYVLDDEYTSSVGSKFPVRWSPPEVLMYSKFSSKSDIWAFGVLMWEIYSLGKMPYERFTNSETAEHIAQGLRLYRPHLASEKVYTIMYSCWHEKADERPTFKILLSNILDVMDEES
UniProt Q9UQM7, whole entry: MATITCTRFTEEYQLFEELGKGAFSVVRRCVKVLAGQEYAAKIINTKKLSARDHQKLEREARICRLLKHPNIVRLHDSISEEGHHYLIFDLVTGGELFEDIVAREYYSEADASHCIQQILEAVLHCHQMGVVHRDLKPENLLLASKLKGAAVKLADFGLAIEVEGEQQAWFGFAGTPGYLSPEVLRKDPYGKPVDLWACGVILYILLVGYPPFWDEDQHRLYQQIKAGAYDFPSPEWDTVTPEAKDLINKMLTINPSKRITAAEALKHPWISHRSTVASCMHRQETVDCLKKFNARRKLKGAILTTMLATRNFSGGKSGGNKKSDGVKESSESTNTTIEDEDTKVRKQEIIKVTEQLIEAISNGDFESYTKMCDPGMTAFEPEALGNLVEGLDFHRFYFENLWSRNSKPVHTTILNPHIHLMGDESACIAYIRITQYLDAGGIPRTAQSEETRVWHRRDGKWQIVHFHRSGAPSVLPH
UniProt Q13555: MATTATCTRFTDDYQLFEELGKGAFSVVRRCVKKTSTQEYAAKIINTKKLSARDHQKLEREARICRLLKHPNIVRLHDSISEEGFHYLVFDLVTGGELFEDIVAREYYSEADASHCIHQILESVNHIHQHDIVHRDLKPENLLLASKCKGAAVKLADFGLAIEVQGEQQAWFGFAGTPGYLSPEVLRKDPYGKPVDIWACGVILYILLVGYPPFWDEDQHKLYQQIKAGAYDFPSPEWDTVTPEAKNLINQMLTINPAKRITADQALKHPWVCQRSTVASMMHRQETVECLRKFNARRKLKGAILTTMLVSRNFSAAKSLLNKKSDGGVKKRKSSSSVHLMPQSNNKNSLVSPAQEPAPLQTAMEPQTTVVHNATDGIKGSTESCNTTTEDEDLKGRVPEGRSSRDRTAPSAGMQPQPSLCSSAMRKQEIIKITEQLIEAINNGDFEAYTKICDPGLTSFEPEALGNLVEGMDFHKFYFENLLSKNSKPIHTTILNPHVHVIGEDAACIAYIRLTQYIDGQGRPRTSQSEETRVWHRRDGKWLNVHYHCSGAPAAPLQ
UniProt Q15131: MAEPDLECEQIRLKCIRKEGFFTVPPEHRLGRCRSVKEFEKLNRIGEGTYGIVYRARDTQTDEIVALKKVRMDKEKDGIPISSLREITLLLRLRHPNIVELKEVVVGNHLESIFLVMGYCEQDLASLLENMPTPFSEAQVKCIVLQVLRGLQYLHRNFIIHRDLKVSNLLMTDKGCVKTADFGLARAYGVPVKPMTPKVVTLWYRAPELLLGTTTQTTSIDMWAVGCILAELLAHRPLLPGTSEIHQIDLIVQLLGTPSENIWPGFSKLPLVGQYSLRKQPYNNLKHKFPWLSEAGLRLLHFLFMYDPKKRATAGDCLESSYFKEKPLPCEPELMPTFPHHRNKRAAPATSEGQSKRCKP
UniProt P11802: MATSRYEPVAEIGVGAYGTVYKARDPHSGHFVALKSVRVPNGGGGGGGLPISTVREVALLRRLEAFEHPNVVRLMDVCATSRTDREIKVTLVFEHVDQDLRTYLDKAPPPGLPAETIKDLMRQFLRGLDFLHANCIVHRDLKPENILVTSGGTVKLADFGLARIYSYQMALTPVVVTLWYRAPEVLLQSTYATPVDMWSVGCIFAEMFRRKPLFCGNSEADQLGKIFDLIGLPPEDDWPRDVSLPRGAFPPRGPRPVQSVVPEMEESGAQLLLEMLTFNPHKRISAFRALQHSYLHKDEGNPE
UniProt Q00535, whole entry, looked up: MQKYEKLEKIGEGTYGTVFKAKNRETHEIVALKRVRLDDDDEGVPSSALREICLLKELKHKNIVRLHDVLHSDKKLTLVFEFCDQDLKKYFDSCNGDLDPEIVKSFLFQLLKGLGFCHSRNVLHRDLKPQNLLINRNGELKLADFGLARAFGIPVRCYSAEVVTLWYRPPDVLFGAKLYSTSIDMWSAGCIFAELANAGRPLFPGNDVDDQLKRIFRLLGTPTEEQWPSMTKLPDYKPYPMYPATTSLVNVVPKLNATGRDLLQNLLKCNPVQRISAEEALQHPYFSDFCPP
UniProt P50613: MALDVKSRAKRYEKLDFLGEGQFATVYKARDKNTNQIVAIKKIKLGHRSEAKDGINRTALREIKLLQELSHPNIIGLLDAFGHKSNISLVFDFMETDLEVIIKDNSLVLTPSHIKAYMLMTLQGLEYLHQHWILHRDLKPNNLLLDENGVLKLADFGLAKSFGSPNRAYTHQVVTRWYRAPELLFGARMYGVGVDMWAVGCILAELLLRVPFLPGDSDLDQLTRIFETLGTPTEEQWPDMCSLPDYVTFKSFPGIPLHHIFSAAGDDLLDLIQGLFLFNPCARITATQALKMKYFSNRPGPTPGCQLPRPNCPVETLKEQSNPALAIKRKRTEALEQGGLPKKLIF
UniProt P50750, whole entry: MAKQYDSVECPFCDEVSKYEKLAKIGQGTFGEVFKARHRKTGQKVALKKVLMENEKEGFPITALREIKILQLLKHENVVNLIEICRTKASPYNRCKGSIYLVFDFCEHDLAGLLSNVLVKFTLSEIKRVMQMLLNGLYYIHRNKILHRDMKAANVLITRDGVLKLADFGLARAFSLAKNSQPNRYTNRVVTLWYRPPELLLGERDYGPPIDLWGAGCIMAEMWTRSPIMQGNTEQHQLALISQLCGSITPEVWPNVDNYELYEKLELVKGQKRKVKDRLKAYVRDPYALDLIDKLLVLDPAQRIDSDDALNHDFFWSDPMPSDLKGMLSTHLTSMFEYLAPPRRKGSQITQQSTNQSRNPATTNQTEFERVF
UniProt O96017, whole entry: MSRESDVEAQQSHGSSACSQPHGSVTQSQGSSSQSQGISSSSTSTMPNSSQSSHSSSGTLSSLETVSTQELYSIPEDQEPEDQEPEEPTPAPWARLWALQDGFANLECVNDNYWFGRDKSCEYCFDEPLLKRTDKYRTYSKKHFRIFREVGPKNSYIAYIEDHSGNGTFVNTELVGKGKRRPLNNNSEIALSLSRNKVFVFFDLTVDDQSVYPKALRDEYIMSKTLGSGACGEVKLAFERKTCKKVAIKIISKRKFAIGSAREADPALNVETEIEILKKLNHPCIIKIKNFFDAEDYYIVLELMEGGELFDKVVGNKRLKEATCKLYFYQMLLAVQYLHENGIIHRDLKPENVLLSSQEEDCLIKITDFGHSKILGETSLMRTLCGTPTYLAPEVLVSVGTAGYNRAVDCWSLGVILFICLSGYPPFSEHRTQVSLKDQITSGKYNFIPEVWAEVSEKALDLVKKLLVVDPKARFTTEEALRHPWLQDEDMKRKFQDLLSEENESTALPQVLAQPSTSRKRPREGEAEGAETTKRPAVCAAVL
UniProt P41240: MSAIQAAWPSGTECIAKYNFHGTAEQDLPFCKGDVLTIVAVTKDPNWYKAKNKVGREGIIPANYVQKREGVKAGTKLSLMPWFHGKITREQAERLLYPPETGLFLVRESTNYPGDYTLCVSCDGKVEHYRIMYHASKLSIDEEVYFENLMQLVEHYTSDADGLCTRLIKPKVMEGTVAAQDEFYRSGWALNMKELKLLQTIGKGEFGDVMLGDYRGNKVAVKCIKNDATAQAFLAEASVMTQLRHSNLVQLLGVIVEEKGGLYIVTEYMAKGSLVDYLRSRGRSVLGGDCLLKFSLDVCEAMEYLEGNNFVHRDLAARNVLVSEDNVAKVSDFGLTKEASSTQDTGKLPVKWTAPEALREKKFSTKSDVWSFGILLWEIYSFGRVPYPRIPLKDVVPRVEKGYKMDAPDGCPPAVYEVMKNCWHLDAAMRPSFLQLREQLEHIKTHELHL
UniProt P48729: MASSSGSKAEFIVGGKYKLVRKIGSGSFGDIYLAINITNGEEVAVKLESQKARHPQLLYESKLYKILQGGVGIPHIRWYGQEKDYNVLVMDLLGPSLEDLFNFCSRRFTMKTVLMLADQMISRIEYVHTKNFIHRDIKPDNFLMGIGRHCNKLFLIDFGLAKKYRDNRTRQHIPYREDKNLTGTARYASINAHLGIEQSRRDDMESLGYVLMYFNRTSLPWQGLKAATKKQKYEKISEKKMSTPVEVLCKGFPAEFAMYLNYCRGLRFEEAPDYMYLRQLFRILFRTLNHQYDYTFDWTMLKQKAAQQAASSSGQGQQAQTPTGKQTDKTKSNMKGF
UniProt P48730: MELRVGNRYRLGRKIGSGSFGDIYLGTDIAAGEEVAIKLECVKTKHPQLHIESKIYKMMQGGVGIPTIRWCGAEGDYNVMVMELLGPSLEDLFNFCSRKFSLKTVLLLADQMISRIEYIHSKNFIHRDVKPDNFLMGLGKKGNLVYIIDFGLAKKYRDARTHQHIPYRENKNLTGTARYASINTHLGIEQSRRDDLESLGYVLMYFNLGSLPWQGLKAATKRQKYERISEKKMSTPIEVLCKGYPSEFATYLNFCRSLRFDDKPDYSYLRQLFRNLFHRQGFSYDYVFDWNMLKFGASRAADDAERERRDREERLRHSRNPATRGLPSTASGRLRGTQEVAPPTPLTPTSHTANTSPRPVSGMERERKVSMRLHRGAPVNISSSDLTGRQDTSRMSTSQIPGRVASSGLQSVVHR
UniProt Q9Y463, whole entry, looked up: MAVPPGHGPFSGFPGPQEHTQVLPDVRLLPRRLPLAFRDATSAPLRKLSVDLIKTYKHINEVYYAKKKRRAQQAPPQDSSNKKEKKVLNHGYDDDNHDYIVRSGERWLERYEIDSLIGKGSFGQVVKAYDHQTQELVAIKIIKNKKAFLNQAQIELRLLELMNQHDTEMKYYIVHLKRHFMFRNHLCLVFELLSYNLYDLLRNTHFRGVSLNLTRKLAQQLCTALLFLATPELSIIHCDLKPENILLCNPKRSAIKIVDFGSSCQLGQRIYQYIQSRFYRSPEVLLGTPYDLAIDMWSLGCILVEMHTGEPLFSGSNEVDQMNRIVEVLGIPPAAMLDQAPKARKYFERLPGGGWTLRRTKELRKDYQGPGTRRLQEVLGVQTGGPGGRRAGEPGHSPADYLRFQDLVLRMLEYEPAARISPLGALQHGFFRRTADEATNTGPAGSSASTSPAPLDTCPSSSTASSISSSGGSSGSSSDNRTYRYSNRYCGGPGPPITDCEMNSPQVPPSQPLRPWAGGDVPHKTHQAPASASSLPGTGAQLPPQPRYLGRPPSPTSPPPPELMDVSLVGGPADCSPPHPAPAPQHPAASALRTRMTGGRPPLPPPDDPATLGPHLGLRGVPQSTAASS
UniProt Q92630: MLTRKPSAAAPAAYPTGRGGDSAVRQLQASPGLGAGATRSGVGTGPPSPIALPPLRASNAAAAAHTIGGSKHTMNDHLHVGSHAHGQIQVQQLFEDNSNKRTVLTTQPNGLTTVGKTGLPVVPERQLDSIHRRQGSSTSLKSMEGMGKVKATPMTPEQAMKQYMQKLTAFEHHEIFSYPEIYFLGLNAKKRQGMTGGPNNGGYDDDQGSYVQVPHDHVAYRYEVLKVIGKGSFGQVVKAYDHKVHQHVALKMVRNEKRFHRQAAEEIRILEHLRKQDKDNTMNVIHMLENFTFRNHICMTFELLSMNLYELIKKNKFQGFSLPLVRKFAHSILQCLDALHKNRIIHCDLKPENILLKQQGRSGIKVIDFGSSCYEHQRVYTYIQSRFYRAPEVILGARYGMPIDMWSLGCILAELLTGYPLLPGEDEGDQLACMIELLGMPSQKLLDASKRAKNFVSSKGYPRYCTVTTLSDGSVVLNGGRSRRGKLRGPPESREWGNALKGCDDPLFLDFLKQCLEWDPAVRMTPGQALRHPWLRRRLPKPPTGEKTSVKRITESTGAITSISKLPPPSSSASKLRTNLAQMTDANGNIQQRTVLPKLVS

Columns and labels:
Experiment in all cases: kinase-Nluc reporter destabilization hit call (1 = scored as downregulated) (binary); higher = compound decreases kinase abundance
Details in all cases: K562; 2-18 h
BRAF_V600E = tested on: BRAF_V600E
BTK = BTK (UniProt Q06187)
CAMK2A = CAMK2A (UniProt Q9UQM7)
CAMK2G = CAMK2G (UniProt Q13555)
CDK10 = CDK10 (UniProt Q15131)
CDK2 = CDK2 (UniProt P24941)
CDK3 = CDK3 (UniProt Q00526)
CDK4 = CDK4 (UniProt P11802)
CDK5 = CDK5 (UniProt Q00535)
CDK6 = CDK6 (UniProt Q00534)
CDK7 = CDK7 (UniProt P50613)
CDK9 = CDK9 (UniProt P50750)
CHEK2 = CHEK2 (UniProt O96017)
CSF1R = CSF1R (UniProt P07333)
CSK = CSK (UniProt P41240)
CSNK1A1 = CSNK1A1 (UniProt P48729)
CSNK1D = CSNK1D (UniProt P48730)
DDR1 = DDR1 (UniProt Q08345)
DYRK1B = DYRK1B (UniProt Q9Y463)
DYRK2 = DYRK2 (UniProt Q92630)

Measured: kinase-Nluc reporter destabilization hit call

Cc1nc(-c2cn3c(n2)-c2ccc(-c4cnn(C(C)(C)C(N)=O)c4)cc2OCC3)n(C(C)C)n1 [Taselisib] (10 µM)
inactive: BRAF_V600E 0 | BTK 0 | CAMK2A 0 | CAMK2G 0 | CDK10 = 0 | CDK2 = 0 | CDK3 = 0 | CDK4 = 0 | CDK5 = 0 | CDK6 = 0 | CDK7 = 0 | CDK9 = 0 | CHEK2 = 0 | CSF1R 0 | CSK 0 | CSNK1A1 = 0 | CSNK1D 0 | DDR1 = 0 | DYRK1B 0 | DYRK2 = 0

CN1CCC(c2cc(-c3ccncc3)c(-c3ccc(F)cc3)[nH]2)CC1 (10 µM)
inactive: BRAF_V600E 0 | BTK 0 | CAMK2A 0 | CAMK2G 0 | CDK10 = 0 | CDK2 = 0 | CDK3 = 0 | CDK4 = 0 | CDK5 = 0 | CDK6 = 0 | CDK7 = 0 | CDK9 = 0 | CHEK2 = 0 | CSF1R 0 | CSK 0 | CSNK1A1 = 0 | CSNK1D 0 | DDR1 = 0 | DYRK1B 0 | DYRK2 = 0

CC(C)(C)c1cc(O)ccc1O (10 µM)
inactive: BRAF_V600E 0 | BTK 0 | CAMK2A 0 | CAMK2G 0 | CDK10 = 0 | CDK2 = 0 | CDK3 = 0 | CDK4 = 0 | CDK5 = 0 | CDK6 = 0 | CDK7 = 0 | CDK9 = 0 | CHEK2 = 0 | CSF1R 0 | CSK 0 | CSNK1A1 = 0 | CSNK1D 0 | DDR1 = 0 | DYRK1B 0 | DYRK2 = 0

Cc1cc(Nc2ncnc3ccc(NC4=NC(C)(C)CO4)cc23)ccc1Oc1ccn2ncnc2c1 [Tucatinib] (2.5 µM)
inactive: BRAF_V600E 0 | BTK 0 | CAMK2A 0 | CAMK2G 0 | CDK10 = 0 | CDK2 = 0 | CDK3 = 0 | CDK4 = 0 | CDK5 = 0 | CDK6 = 0 | CDK7 = 0 | CDK9 = 0 | CHEK2 = 0 | CSF1R 0 | CSK 0 | CSNK1A1 = 0 | CSNK1D 0 | DDR1 = 0 | DYRK1B 0 | DYRK2 = 0

NC(=O)c1ccc(-c2nc(-c3ccc4c(c3)OCCO4)c(-c3ccccn3)[nH]2)cc1 (10 µM)
inactive: BRAF_V600E 0 | BTK 0 | CAMK2A 0 | CAMK2G 0 | CDK10 = 0 | CDK2 = 0 | CDK3 = 0 | CDK4 = 0 | CDK5 = 0 | CDK6 = 0 | CDK7 = 0 | CDK9 = 0 | CHEK2 = 0 | CSF1R 0 | CSK 0 | CSNK1A1 = 0 | CSNK1D 0 | DDR1 = 0 | DYRK1B 0 | DYRK2 = 0

NCCNS(=O)(=O)c1cccc2c(Cl)cccc12 [A-3 (hydrochloride)] (10 µM)
inactive: BRAF_V600E 0 | BTK 0 | CAMK2A 0 | CAMK2G 0 | CDK10 = 0 | CDK2 = 0 | CDK3 = 0 | CDK4 = 0 | CDK5 = 0 | CDK6 = 0 | CDK7 = 0 | CDK9 = 0 | CHEK2 = 0 | CSF1R 0 | CSK 0 | CSNK1A1 = 0 | CSNK1D 0 | DDR1 = 0 | DYRK1B 0 | DYRK2 = 0

OCCn1cc(-c2ccc3c(c2)CC/C3=N\O)c(-c2ccncc2)n1 (10 µM)
inactive: BRAF_V600E 0 | BTK 0 | CAMK2A 0 | CAMK2G 0 | CDK10 = 0 | CDK2 = 0 | CDK3 = 0 | CDK4 = 0 | CDK5 = 0 | CDK6 = 0 | CDK7 = 0 | CDK9 = 0 | CHEK2 = 0 | CSF1R 0 | CSK 0 | CSNK1A1 = 0 | CSNK1D 0 | DDR1 = 0 | DYRK1B 0 | DYRK2 = 0

Cc1ccccc1-n1c([C@H](C)Nc2nc(N)nc3nc[nH]c23)nc2cccc(C)c2c1=O [CAL-130 (Hydrochloride)] (10 µM)
inactive: BRAF_V600E 0 | BTK 0 | CAMK2A 0 | CAMK2G 0 | CDK10 = 0 | CDK2 = 0 | CDK3 = 0 | CDK4 = 0 | CDK5 = 0 | CDK6 = 0 | CDK7 = 0 | CDK9 = 0 | CHEK2 = 0 | CSF1R 0 | CSK 0 | CSNK1A1 = 0 | CSNK1D 0 | DDR1 = 0 | DYRK1B 0 | DYRK2 = 0

CS(=O)(=O)Nc1cc(-c2ccc3ncnc(Nc4ccc(F)c(Cl)c4)c3c2)cnc1Cl (2.5 µM)
inactive: BRAF_V600E 0 | BTK 0 | CAMK2A 0 | CAMK2G 0 | CDK10 = 0 | CDK2 = 0 | CDK3 = 0 | CDK4 = 0 | CDK5 = 0 | CDK6 = 0 | CDK7 = 0 | CDK9 = 0 | CHEK2 = 0 | CSF1R 0 | CSK 0 | CSNK1A1 = 0 | CSNK1D 0 | DDR1 = 0 | DYRK1B 0 | DYRK2 = 0

CCNc1nc(Nc2cc(F)c(C(=O)N3CCOCC3)cc2OC)ncc1C(F)(F)F [GNE-7915 (tosylate)] (10 µM)
inactive: BRAF_V600E 0 | BTK 0 | CAMK2A 0 | CAMK2G 0 | CDK10 = 0 | CDK2 = 0 | CDK3 = 0 | CDK4 = 0 | CDK5 = 0 | CDK6 = 0 | CDK7 = 0 | CDK9 = 0 | CHEK2 = 0 | CSF1R 0 | CSK 0 | CSNK1A1 = 0 | CSNK1D 0 | DDR1 = 0 | DYRK1B 0 | DYRK2 = 0

COc1cc2c(cc1OC)CN(S(=O)(=O)c1ccc(OC)c(N3CCN(C(=O)c4ccc(F)cc4C(F)(F)F)CC3)c1)CC2 (10 µM)
inactive: BRAF_V600E 0 | BTK 0 | CAMK2A 0 | CAMK2G 0 | CDK10 = 0 | CDK2 = 0 | CDK3 = 0 | CDK4 = 0 | CDK5 = 0 | CDK6 = 0 | CDK7 = 0 | CDK9 = 0 | CHEK2 = 0 | CSF1R 0 | CSK 0 | CSNK1A1 = 0 | CSNK1D 0 | DDR1 = 0 | DYRK1B 0 | DYRK2 = 0

Cc1ccc(C(=O)Nc2ccc(Oc3cc4cnn(C)c4cc3-c3cn[nH]c3)c(F)c2)c(=O)n1-c1ccc(F)cc1 [Merestinib dihydrochloride] (2.5 µM)
inactive: BRAF_V600E 0 | BTK 0 | CAMK2A 0 | CAMK2G 0 | CDK10 = 0 | CDK2 = 0 | CDK3 = 0 | CDK4 = 0 | CDK5 = 0 | CDK6 = 0 | CDK7 = 0 | CDK9 = 0 | CHEK2 = 0 | CSF1R 0 | CSK 0 | CSNK1A1 = 0 | CSNK1D 0 | DDR1 = 0 | DYRK1B 0 | DYRK2 = 0

O=C(O)CCC(=O)Nc1ccc(Br)cn1 [Bikinin] (10 µM)
inactive: BRAF_V600E 0 | BTK 0 | CAMK2A 0 | CAMK2G 0 | CDK10 = 0 | CDK2 = 0 | CDK3 = 0 | CDK4 = 0 | CDK5 = 0 | CDK6 = 0 | CDK7 = 0 | CDK9 = 0 | CHEK2 = 0 | CSF1R 0 | CSK 0 | CSNK1A1 = 0 | CSNK1D 0 | DDR1 = 0 | DYRK1B 0 | DYRK2 = 0

Cc1cc(Nc2ncnc3ccc(NC4=NC(C)(C)CO4)cc23)ccc1Oc1ccn2ncnc2c1 [Tucatinib (hemiethanolate)] (2.5 µM)
inactive: BRAF_V600E 0 | BTK 0 | CAMK2A 0 | CAMK2G 0 | CDK10 = 0 | CDK2 = 0 | CDK3 = 0 | CDK4 = 0 | CDK5 = 0 | CDK6 = 0 | CDK7 = 0 | CDK9 = 0 | CHEK2 = 0 | CSF1R 0 | CSK 0 | CSNK1A1 = 0 | CSNK1D 0 | DDR1 = 0 | DYRK1B 0 | DYRK2 = 0

CCS(=O)(=O)c1ncc(Cl)c(C(=O)N(Cc2ccc(Cl)cc2)Cc2ccco2)n1 (2.5 µM)
inactive: BRAF_V600E 0 | BTK 0 | CAMK2A 0 | CAMK2G 0 | CDK10 = 0 | CDK2 = 0 | CDK3 = 0 | CDK4 = 0 | CDK5 = 0 | CDK6 = 0 | CDK7 = 0 | CDK9 = 0 | CHEK2 = 0 | CSF1R 0 | CSK 0 | CSNK1A1 = 0 | CSNK1D 0 | DDR1 = 0 | DYRK1B 0 | DYRK2 = 0

Two successive entries already listed, for reference:
Cc1ccccc1-n1c([C@H](C)Nc2nc(N)nc3nc[nH]c23)nc2cccc(C)c2c1=O [CAL-130 (Hydrochloride)] (10 µM)
inactive: BRAF_V600E 0 | BTK 0 | CAMK2A 0 | CAMK2G 0 | CDK10 = 0 | CDK2 = 0 | CDK3 = 0 | CDK4 = 0 | CDK5 = 0 | CDK6 = 0 | CDK7 = 0 | CDK9 = 0 | CHEK2 = 0 | CSF1R 0 | CSK 0 | CSNK1A1 = 0 | CSNK1D 0 | DDR1 = 0 | DYRK1B 0 | DYRK2 = 0

CS(=O)(=O)Nc1cc(-c2ccc3ncnc(Nc4ccc(F)c(Cl)c4)c3c2)cnc1Cl (2.5 µM)
inactive: BRAF_V600E 0 | BTK 0 | CAMK2A 0 | CAMK2G 0 | CDK10 = 0 | CDK2 = 0 | CDK3 = 0 | CDK4 = 0 | CDK5 = 0 | CDK6 = 0 | CDK7 = 0 | CDK9 = 0 | CHEK2 = 0 | CSF1R 0 | CSK 0 | CSNK1A1 = 0 | CSNK1D 0 | DDR1 = 0 | DYRK1B 0 | DYRK2 = 0

Going on with the list:

Cc1cccc(Oc2cnc(=O)[nH]c2)c1 [Tolimidone] (10 µM)
inactive: BRAF_V600E 0 | BTK 0 | CAMK2A 0 | CAMK2G 0 | CDK10 = 0 | CDK2 = 0 | CDK3 = 0 | CDK4 = 0 | CDK5 = 0 | CDK6 = 0 | CDK7 = 0 | CDK9 = 0 | CHEK2 = 0 | CSF1R 0 | CSK 0 | CSNK1A1 = 0 | CSNK1D 0 | DDR1 = 0 | DYRK1B 0 | DYRK2 = 0

CC#CC(=O)N1CC[C@@H](n2c(=O)n(-c3ccc(Oc4ccccc4)cc3)c3c(N)ncnc32)C1 [Tirabrutinib] (10 µM)
inactive: BRAF_V600E 0 | BTK 0 | CAMK2A 0 | CAMK2G 0 | CDK10 = 0 | CDK2 = 0 | CDK3 = 0 | CDK4 = 0 | CDK5 = 0 | CDK6 = 0 | CDK7 = 0 | CDK9 = 0 | CHEK2 = 0 | CSF1R 0 | CSK 0 | CSNK1A1 = 0 | CSNK1D 0 | DDR1 = 0 | DYRK1B 0 | DYRK2 = 0

C[C@@]1(c2ncncc2F)NC(=O)c2cc(-c3cn[nH]c3)ccc21 (10 µM)
inactive: BRAF_V600E 0 | BTK 0 | CAMK2A 0 | CAMK2G 0 | CDK10 = 0 | CDK2 = 0 | CDK3 = 0 | CDK4 = 0 | CDK5 = 0 | CDK6 = 0 | CDK7 = 0 | CDK9 = 0 | CHEK2 = 0 | CSF1R 0 | CSK 0 | CSNK1A1 = 0 | CSNK1D 0 | DDR1 = 0 | DYRK1B 0 | DYRK2 = 0
